From the supplement of paper PMC11732987, “Enantioselective OTUD7B fragment discovery through chemoproteomics screening and high-throughput optimisation” (Communications Chemistry, 2025)
The other results are listed elsewhere or left out. The data scatter; read single values as rough.

By UniProt entry, the sequences of proteins in these tests, tags left out. Where a name states a change or a piece, a line headed by the entry shows the natural chain unless it says otherwise. Residues count along the entry.
UniProt Q8WY36, 574-601: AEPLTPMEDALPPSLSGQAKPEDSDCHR
UniProt P16615: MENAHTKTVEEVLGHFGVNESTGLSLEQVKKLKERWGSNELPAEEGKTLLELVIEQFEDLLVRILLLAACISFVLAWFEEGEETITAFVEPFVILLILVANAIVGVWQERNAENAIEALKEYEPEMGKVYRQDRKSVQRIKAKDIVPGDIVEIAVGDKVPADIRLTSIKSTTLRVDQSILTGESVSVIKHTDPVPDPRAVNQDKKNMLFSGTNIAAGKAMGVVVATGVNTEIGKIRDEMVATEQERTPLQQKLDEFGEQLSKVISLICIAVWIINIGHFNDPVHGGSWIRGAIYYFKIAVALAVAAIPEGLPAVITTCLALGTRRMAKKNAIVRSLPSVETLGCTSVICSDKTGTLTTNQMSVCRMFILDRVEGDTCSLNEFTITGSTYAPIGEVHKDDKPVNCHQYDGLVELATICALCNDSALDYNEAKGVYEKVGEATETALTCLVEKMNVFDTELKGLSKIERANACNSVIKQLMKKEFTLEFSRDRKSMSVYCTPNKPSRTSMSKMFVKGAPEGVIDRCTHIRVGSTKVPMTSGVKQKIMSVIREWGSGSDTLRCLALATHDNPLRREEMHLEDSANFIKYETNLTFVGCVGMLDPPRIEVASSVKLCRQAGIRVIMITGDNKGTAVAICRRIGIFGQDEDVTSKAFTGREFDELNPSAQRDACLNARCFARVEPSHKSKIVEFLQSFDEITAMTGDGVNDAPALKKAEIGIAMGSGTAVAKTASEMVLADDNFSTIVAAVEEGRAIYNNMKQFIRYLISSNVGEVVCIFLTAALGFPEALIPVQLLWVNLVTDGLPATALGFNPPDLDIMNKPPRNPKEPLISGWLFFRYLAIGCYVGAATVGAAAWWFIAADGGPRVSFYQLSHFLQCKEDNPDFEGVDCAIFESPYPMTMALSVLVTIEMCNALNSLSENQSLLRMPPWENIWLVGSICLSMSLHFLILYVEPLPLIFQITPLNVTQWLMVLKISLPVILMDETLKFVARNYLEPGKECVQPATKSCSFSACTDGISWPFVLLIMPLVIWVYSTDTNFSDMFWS
UniProt Q9HB09: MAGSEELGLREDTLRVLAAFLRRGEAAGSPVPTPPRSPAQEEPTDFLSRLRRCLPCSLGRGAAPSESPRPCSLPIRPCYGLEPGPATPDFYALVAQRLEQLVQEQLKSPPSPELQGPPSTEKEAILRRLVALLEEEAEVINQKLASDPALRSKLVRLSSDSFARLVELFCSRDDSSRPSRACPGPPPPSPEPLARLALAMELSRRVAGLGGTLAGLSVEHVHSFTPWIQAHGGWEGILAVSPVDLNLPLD
UniProt Q96QE3: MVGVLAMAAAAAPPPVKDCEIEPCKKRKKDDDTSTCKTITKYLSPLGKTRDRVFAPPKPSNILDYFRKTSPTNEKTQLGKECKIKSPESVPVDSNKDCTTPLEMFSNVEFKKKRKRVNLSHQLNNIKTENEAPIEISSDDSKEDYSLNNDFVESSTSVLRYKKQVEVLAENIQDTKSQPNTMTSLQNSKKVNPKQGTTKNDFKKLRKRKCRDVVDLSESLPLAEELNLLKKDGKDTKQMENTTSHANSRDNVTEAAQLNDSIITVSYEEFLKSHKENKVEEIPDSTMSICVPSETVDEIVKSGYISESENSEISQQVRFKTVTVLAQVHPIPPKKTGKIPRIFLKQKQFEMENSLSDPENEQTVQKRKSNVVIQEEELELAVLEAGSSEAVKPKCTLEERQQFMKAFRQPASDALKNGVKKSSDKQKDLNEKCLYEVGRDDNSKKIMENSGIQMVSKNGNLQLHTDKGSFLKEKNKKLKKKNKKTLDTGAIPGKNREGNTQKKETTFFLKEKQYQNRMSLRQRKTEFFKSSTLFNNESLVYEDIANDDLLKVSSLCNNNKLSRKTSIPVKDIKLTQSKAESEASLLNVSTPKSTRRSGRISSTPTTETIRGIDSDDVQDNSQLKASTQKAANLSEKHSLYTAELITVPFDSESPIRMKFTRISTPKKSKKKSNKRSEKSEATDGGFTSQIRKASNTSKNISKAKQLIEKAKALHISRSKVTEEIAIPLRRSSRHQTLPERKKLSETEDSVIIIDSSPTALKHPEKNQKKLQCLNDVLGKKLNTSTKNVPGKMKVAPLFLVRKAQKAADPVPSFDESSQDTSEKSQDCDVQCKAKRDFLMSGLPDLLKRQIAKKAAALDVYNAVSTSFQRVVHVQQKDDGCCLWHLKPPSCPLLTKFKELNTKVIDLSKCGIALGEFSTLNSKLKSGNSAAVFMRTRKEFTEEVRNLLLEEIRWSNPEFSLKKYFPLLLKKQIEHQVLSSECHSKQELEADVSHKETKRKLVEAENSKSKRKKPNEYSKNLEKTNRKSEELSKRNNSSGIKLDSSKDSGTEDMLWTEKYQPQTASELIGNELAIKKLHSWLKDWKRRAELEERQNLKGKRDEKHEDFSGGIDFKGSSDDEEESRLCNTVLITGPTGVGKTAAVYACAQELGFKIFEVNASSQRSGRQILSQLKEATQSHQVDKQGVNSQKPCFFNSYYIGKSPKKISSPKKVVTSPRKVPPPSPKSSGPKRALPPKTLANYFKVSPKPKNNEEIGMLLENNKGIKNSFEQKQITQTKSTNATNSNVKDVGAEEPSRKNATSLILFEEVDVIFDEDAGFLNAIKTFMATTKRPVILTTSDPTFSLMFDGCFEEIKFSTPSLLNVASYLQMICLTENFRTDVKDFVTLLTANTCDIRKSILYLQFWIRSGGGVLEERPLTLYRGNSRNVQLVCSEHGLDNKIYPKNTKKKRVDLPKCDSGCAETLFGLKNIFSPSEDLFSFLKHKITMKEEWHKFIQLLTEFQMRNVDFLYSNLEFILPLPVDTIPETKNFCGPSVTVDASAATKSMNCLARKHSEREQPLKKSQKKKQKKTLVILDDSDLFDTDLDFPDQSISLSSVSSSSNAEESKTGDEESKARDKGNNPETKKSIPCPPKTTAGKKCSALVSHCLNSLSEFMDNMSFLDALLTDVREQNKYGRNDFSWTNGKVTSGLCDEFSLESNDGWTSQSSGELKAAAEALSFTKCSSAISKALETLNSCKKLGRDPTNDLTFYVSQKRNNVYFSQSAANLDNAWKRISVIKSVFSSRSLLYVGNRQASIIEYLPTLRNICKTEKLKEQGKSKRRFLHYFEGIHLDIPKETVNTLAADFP
UniProt P21953: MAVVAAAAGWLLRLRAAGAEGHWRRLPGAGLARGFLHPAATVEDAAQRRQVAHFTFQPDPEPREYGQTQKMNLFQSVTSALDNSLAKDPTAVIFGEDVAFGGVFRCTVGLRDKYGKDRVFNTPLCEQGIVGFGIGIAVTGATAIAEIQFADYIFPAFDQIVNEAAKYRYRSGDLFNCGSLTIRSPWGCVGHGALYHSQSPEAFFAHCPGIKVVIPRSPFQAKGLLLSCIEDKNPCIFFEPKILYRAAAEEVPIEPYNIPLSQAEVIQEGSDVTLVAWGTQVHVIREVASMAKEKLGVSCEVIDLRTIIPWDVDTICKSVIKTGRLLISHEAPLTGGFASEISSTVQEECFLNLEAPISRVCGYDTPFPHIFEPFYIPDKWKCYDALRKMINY
UniProt Q6QNY1, 13-42: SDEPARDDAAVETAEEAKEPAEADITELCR
UniProt Q9UL15, 308-329: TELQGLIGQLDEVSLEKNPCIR
UniProt O00512, 112-132: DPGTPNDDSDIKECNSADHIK
UniProt Q9H6U6, 255-274: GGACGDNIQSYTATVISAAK
UniProt Q76L83: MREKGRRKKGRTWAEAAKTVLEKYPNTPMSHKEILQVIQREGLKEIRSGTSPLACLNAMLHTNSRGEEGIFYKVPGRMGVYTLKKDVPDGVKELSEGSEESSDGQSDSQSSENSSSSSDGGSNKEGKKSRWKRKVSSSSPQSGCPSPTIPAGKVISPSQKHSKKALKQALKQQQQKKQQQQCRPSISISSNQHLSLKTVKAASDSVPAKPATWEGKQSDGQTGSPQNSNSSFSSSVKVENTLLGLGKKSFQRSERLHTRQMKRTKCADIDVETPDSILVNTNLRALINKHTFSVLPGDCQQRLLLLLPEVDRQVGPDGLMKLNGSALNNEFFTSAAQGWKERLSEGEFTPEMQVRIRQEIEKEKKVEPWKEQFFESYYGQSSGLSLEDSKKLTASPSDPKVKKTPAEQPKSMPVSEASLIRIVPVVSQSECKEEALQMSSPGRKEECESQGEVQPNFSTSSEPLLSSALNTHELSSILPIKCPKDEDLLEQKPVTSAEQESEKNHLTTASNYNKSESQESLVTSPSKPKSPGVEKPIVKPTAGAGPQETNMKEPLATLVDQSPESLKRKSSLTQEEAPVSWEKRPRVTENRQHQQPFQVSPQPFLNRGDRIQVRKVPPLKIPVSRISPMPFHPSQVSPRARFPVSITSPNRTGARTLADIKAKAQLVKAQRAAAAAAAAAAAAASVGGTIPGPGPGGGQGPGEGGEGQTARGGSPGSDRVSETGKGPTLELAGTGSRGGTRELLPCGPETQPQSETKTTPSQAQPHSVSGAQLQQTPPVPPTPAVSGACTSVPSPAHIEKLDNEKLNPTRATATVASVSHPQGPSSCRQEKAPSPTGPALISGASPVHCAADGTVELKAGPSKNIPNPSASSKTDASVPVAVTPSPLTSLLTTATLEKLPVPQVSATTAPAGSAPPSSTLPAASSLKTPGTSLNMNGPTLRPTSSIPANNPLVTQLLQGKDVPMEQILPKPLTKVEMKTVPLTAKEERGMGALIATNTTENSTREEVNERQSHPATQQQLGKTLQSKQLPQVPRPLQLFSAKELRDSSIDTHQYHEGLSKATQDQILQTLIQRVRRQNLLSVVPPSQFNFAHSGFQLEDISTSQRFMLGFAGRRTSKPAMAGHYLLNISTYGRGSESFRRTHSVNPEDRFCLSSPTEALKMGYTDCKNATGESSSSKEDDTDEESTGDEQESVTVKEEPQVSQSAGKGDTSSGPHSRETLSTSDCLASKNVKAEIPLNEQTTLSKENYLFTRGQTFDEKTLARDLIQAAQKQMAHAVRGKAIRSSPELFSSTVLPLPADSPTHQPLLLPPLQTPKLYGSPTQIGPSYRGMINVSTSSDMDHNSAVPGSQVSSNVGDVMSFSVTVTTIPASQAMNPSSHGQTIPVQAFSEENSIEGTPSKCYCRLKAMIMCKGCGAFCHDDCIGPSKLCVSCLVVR
UniProt Q8N5M1: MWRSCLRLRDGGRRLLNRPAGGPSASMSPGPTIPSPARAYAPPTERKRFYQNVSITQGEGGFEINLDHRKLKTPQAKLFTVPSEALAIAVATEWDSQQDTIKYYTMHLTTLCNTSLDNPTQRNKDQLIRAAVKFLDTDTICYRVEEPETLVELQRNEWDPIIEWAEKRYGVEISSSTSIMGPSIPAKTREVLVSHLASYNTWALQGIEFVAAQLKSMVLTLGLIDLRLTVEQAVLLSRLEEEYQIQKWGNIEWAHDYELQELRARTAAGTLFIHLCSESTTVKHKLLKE
UniProt Q8N9N5: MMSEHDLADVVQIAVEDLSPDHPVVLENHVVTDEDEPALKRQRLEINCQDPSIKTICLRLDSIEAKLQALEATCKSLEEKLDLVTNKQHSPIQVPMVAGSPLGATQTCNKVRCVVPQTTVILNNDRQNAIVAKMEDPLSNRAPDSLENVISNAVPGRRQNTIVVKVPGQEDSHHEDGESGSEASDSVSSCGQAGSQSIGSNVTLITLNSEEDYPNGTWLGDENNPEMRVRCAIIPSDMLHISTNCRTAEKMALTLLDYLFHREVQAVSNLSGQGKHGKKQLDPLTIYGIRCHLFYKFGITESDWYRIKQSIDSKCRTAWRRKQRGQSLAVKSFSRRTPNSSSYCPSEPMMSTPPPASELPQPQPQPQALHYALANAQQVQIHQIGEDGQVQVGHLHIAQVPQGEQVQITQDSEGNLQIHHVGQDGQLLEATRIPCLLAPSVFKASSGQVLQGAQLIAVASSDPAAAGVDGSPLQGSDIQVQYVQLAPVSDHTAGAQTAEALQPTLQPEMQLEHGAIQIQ
UniProt Q9BZE9: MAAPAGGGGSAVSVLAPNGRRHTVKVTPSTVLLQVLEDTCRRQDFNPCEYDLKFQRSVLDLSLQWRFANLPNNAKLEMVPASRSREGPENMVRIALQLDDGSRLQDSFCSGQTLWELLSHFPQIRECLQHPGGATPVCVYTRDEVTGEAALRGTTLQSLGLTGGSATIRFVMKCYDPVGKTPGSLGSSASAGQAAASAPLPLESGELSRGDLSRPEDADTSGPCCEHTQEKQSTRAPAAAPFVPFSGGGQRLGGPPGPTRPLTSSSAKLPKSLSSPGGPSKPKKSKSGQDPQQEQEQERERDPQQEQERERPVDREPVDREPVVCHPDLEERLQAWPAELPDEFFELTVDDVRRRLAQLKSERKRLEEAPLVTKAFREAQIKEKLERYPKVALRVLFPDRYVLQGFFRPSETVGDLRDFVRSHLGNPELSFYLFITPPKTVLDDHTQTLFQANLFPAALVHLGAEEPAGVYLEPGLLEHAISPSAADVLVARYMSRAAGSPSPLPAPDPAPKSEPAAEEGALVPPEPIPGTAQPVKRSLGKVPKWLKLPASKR

compound: ClCC(=O)N[C@H]1CCCc2ccccc12; assay: log2 mean competition ratio of IA-DTB cysteine labelling (DMSO/compound) (log2 ratio); higher = stronger cysteine engagement by compound; conditions: 50 µM; treatment time: 4 h; cell line lysate: HEK293T
Description: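 IA-DTB competitive cysteine chemoproteomics in HEK293T RIPA lysate. Lysates were treated with compound 29 or 30 at 50 or 200 µM for 4 h, then IA-DTB (500 µM, 1 h), trypsin-digested, NeutrAvidin-enriched and analysed by diaPASEF. Competition ratio = intensity DMSO / intensity compound (n=4 treated, n=64 DMSO); binding: mean log2 CR ≥ 1 and p ≤ 0.05 plus QC filters. Target is the cysteine site.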

Target	log2 mean competition ratio
BBX C870 (UniProt Q8WY36)	-0.0949
ATXN2 C892	0.216
BAG1 C213 (UniProt Q99933)	0.00245
BMS1 C101 (UniProt Q14692)	-0.25
ATP2A2 C997 (UniProt P16615)	0.157
ATG7 C298 (UniProt O95352)	-0.284
ATAD3B C492 (UniProt Q5T9A4)	-0.461
BIRC6 C752	-0.19
BCL2L12 C266 (UniProt Q9HB09)	0.267
AZI2 C332 (UniProt Q9H6S1)	0.0273
ATE1 C138 (UniProt O95260)	0.948
ATAD5 C433 (UniProt Q96QE3)	0.198
ATAD2 C1246 (UniProt Q6PL18)	-0.72
BCKDHB C316 (UniProt P21953)	0.0632
BLOC1S2 C41 (UniProt Q6QNY1)	0.294
ATP2A3 C447 (UniProt Q93084)	-0.415
ATAD5 C1430 (UniProt Q96QE3)	-0.322
ATF7IP C451 (UniProt Q6VMQ6)	0.222

Target	log2 mean competition ratio
BBX C599 (UniProt Q8WY36)	0.252
BAG5 C327 (UniProt Q9UL15)	-0.00618
BAZ1B C1045 (UniProt Q9UIG0)	0.43
BCL9 C125 (UniProt O00512)	-0.529
BCAS2 C132 (UniProt O75934)	0.0678
BCAS3 C258 (UniProt Q9H6U6)	0.822
BCKDHB C299 (UniProt P21953)	-0.541
AURKA C290 (UniProt O14965)	0.09
ATRX C450 (UniProt P46100)	0.197
ASXL2 C827 (UniProt Q76L83)	0.655
BIRC6 C1293	0.504
ATR C753 (UniProt Q13535)	-0.0226
ATPAF2 C141 (UniProt Q8N5M1)	-0.251
BANP C48 (UniProt Q8N9N5)	-0.209
BBS7 C167 (UniProt Q8IWZ6)	-0.103
ATP2A2 C669 (UniProt P16615)	0.587
ASPSCR1 C48 (UniProt Q9BZE9)	-0.121
BCOR C1080 (UniProt Q6W2J9)	-0.0195

same assay, conditions: 200 µM; treatment time: 4 h; cell line lysate: HEK293T

Target	log2 mean competition ratio
BBX C870 (UniProt Q8WY36)	0.505
ATXN2 C892	-0.307
BAG1 C213 (UniProt Q99933)	0.426
BMS1 C101 (UniProt Q14692)	0.0542
ATP2A2 C997 (UniProt P16615)	-0.101
ATG7 C298 (UniProt O95352)	-0.107
ATAD3B C492 (UniProt Q5T9A4)	-0.0215
BIRC6 C752	0.0192
BCL2L12 C266 (UniProt Q9HB09)	-0.106
AZI2 C332 (UniProt Q9H6S1)	0.478
ATE1 C138 (UniProt O95260)	0.0181
ATAD5 C433 (UniProt Q96QE3)	-0.169
ATAD2 C1246 (UniProt Q6PL18)	-0.0309
BCKDHB C316 (UniProt P21953)	0.0464
BLOC1S2 C41 (UniProt Q6QNY1)	0.0737
ATP2A3 C447 (UniProt Q93084)	0.0398
ATAD5 C1430 (UniProt Q96QE3)	0.0119
ATF7IP C451 (UniProt Q6VMQ6)	-0.0195

Target	log2 mean competition ratio
BBX C599 (UniProt Q8WY36)	-0.0493
BAG5 C327 (UniProt Q9UL15)	0.0978
BAZ1B C1045 (UniProt Q9UIG0)	0.135
BCL9 C125 (UniProt O00512)	0.0195
BCAS2 C132 (UniProt O75934)	-0.11
BCAS3 C258 (UniProt Q9H6U6)	-0.156
BCKDHB C299 (UniProt P21953)	-0.0724
AURKA C290 (UniProt O14965)	-0.148
ATRX C450 (UniProt P46100)	-0.306
ASXL2 C827 (UniProt Q76L83)	0.285
BIRC6 C1293	-0.147
ATR C753 (UniProt Q13535)	0.00936
ATPAF2 C141 (UniProt Q8N5M1)	-0.019
BANP C48 (UniProt Q8N9N5)	0.0705
BBS7 C167 (UniProt Q8IWZ6)	0.0262
ATP2A2 C669 (UniProt P16615)	0.384
ASPSCR1 C48 (UniProt Q9BZE9)	0.0223
BCOR C1080 (UniProt Q6W2J9)	0.0805
